The test can be described thus: qHTS Assay for Lipid Storage Modulators in Drosophila S3 Cells.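 For cell number change: cells counted by Cell Tracker Red CMTPX staining in the red channel.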 The following applies: BODIPY lipid droplet fluorescence, 18-24 h; for cell number change: measured here: cell count max response, cells fed with added oleic acid. An outline of the steps:
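Drosophila S3 cells loaded with oleic acid (400 uM, as added) and compounds at several concentrations; lipid droplets imaged by 488-nm laser-scanning cytometry, 500–530 nm intensity and object ratio to cell channel. Percent activity normalized to 20 uM Triacsin C.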

[1] abbreviates: measured here: lipid fluorescence (Fed channel) AC50, cells fed with added oleic acid.
The mark [2] stands for this setting: measured here: cell number channel AC50, cells fed with added oleic acid.

In general, AC50 refers to the midpoint of the concentration-response curve, whichever way the signal moves.

This is one part of the list. Further columns of the screen follow, without active or inactive calls. The list favours compounds with an active or inconclusive main result. The note in brackets gives the kind of curve behind each potency; many fits are weak.

Regarding `C=CCNC(=O)/C(C#N)=C/c1c(N2CC(C)OC(C)C2)nc2ccccn2c1=O` (configuration not stated), the cell number change was -16.7%. The half-maximal activity concentration (AC50) under setting [1] was 3.66 µM [rising, full curve].

Turning to `CCOc1ccc(OCc2cccc(C(=O)N3CCCC3)c2)cc1`, the cell number change came out at 206%. The concentration at half-maximal activity (AC50) under setting [2] was 29.1 µM [rising, single point].

Take `S=C(c1ccc(-c2ccccc2)o1)N1CCCCC1`: the cell number change was 21.5%.

In the case of `CCN(CC)c1ccc(N=Cc2ccc([N+](=O)[O-])o2)cc1`, the cell number change was determined as 36.3%. Besides, the AC50 under setting [2] was 6.51 µM [rising, single point]. Moreover, the half-maximal activity concentration (AC50) under setting [1] is 18.4 µM [falling, single point].

Turning to `CCc1nc(N2CCN(C(=O)c3ccco3)CC2)c2oc3ccccc3c2n1`, the cell number change came to 6.34%. Further, under setting [1], the AC50 is 29.1 µM [falling, single point].

Take `COc1ccc(Cn2c(CCC(=O)NCc3ccco3)nc3cccnc32)cc1`: the cell number change was -3.74%. For the same compound, under setting [1], the AC50 was 0.326 µM [falling, partial curve, poor fit].

Regarding `COc1cc(OC)cc(C(=O)Nc2nc3ccccc3[nH]2)c1`, the cell number change is -0.255%. Moreover, the concentration at half-maximal activity (AC50) under setting [2] was 1.84 µM [rising, partial curve]. The AC50 under setting [1] was 0.731 µM [rising, single point].

Take `CCn1c(-c2ccccc2)csc1=Nc1ccc(S(=O)(=O)O)cc1`: the cell number change was found to be 0.705%. The AC50 under setting [1] is 0.92 µM [falling, full curve, poor fit].

Turning to `CCOC(=O)Cc1csc(SC(C)C(=O)NC2CCCCC2C)n1` (configuration not stated), the cell number change was -24.5%.

Turning to `CCCCCCOC(=O)C1=C(C)NC(=O)NC1c1ccc(O)cc1` (configuration not stated), the cell number change is -20.9%. Moreover, under setting [1], the AC50 is 2.59 µM [rising, full curve].

Turning to `O=C(O)c1c2c(nc3ccc(Cl)cc13)CCC2`, the concentration at half-maximal activity (AC50) under setting [1] is 0.0291 µM [falling, full curve].

For `CC(=O)c1ccc(OCC(=O)Nc2cccc(S(=O)(=O)N3CCCC3)c2)cc1`, the cell number change was -16.5%. The AC50 under setting [1] is 8.2 µM [falling, partial curve].

Take `N#Cc1cccc(NC(=O)CC2CCCC2)c1`: the cell number change was -4.76%. Besides, the concentration at half-maximal activity (AC50) under setting [1] was 29.1 µM [falling, partial curve, poor fit].

Regarding `CC(C)NC(=O)c1nn(C)c2ccccc12`, the cell number change was 6.27%. In addition, the AC50 under setting [1] is 0.259 µM [rising, full curve, poor fit].

`CCOc1cc(/C=C2/C(=N)N3OC(C)=CC3=NC2=O)ccc1OCCOc1ccccc1`: the cell number change turned out to be 82.9%.

On to `O=C(/C=C/c1ccco1)NCC(=O)N/N=C/c1ccc([N+](=O)[O-])cc1`, for which the cell number change stood at 51.4%. For the same compound, under setting [2], the AC50 was 10.3 µM [rising, partial curve].

With `COC(=O)CS(=O)(=O)c1ccc(C)cc1`, the cell number change stood at 46.9%. Further, the AC50 under setting [2] was 5.8 µM [rising, partial curve, poor fit]. Under setting [1], the AC50 is 14.6 µM [rising, partial curve, poor fit].

As to `CCOC(=O)c1sc(NC(=O)c2cccc(S(=O)(=O)N(CC)CC)c2)cc1C`, the AC50 was 0.366 µM [rising, full curve] under setting [2] and 1.03 µM [rising, full curve] under setting [1].

For the compound `O=C(O)c1ccc(-n2c(-c3ccc(Br)cc3)n[nH]c2=S)cc1`, the cell number change was -43.3%. Moreover, the concentration at half-maximal activity (AC50) under setting [2] was 29.1 µM [falling, single point]. In addition, under setting [1], the AC50 is 29.1 µM [falling, single point].

In the case of `Cc1cccc(NC(=O)COC(=O)CC2CCCC2)c1C`, the cell number change was 6.81%. Besides, the half-maximal activity concentration (AC50) under setting [1] is 2.31 µM [rising, single point].

Take `O=C(COC(=O)C1=COCCO1)Nc1ccc2c(c1)OCO2`: the cell number change amounted to 1.29%.

In the case of `CCc1nnc(NC(=O)CSc2nnc3c(n2)[nH]c2ccccc23)s1`, the cell number change came out at 50.7%.

As to `Cc1sc2nc3ccc(N4CCCC4)nn3c(=O)c2c1C`, the cell number change was -19.4%. In addition, the AC50 under setting [1] is 18.4 µM [falling, single point].

Consider `CCC(C)(C)n1nnnc1C(c1cc2ccc(OC)cc2[nH]c1=O)N1CCCCC1` (configuration not stated), for which the cell number change was -1.28%.

On to `COc1ccc(N(C(=O)c2csnn2)C(C(=O)NC2CCCC2)c2cccs2)cc1` (configuration not stated), for which the cell number change was -8.97%.

As for `COC(=O)c1cc2ccccc2c(-c2c(O)ccc3ccccc23)c1O`, under setting [1], the concentration at half-maximal activity (AC50) is 23.1 µM [falling, single point].

Consider `Cc1cccc(N2C(=O)C3C(c4ccccc4)OC4(C(=O)c5ccccc5C4=O)C3C2=O)c1` (configuration not stated), for which the cell number change is -15.3%.

`CCCCSc1nc(C)[nH]c1[N+](=O)[O-]`: the cell number change is -23.8%. For the same compound, the AC50 under setting [1] was 3.66 µM [falling, full curve].

For the compound `O=C(CNC(=O)c1ccccc1)OC(C(=O)Nc1cc(C(F)(F)F)ccc1Cl)c1ccccc1` (configuration not stated), the cell number change was -5.76%. Under setting [1], the AC50 was 1.3 µM [falling, full curve].

For `COc1ccc2cc(C(=O)NCc3ccco3)c(=O)oc2c1`, the cell number change is -6.85%.

As for `CCC1CCCCN1CCN1C(=O)C2C(C(=O)Nc3cccc(OC)c3)C3C=CC2(O3)C1C(=O)NC1CCCCC1` (configuration not stated), the cell number change came out at 1.61%. Under setting [1], the AC50 was 16.4 µM [falling, partial curve, poor fit].

Consider `CC(=O)c1ccc(OCC(=O)c2ccc(-c3ccccc3)cc2)cc1`, for which the cell number change came out at 13.9%. Also, under setting [1], the AC50 was 7.31 µM [falling, single point].

In the case of `Cc1cc(C(=O)CSc2nc3ccc(Cl)cc3[nH]2)c(C)n1CC1CCCO1` (configuration not stated), the cell number change is -8.79%.

As for `COc1ccc(-c2cnc[nH]2)cc1`, the cell number change worked out at 34.9%. The AC50 under setting [2] is 0.13 µM [rising, full curve].

For the compound `CCN1C(=NCCOC)N[C@@H](c2ccccc2)[C@H](C(=O)OC)[C@H]1C`, the cell number change was -9.97%. Besides, the concentration at half-maximal activity (AC50) under setting [1] was 6.51 µM [falling, single point].

`COc1ccc(-c2nc3ccccc3nc2-c2ccc(OC)cc2)cc1`: the cell number change turned out to be 11.1%.

Turning to `Cc1nc2ccccc2n1CC(=O)NCc1ccccc1`, the cell number change is 4.03%. In addition, the AC50 under setting [2] is 2.06 µM [rising, partial curve]. Further, the AC50 under setting [1] was 3.26 µM [rising, partial curve].

`CCC(C)c1ccc(-c2cc(C(=O)OCC(=O)Nc3cc(C)on3)c3ccccc3n2)cc1` (configuration not stated): the cell number change was determined as 132%. Moreover, the concentration at half-maximal activity (AC50) under setting [2] is 4.61 µM [rising, partial curve]. In addition, the half-maximal activity concentration (AC50) under setting [1] is 6.51 µM [rising, single point].

With `O=C(O)c1ccccc1-c1ccccc1C(=O)NNc1ccccc1`, the cell number change turned out to be 28.1%. Under setting [2], the concentration at half-maximal activity (AC50) is 3.26 µM [rising, single point]. Moreover, the AC50 under setting [1] is 0.0461 µM [falling, full curve].

`Cc1cc(C)n2c(nc3ccccc32)c1C(=O)NCc1ccccc1`: the cell number change is 16.1%. Also, the concentration at half-maximal activity (AC50) under setting [2] is 0.00517 µM [rising, full curve, poor fit]. In addition, under setting [1], the AC50 was 0.291 µM [rising, partial curve, poor fit].

With `COc1ccc(S(N)(=O)=O)cc1C(=O)NCC1(N2CCCCC2)CCCCC1`, the cell number change was -27.4%. The concentration at half-maximal activity (AC50) under setting [1] was 1.84 µM [falling, full curve].

Regarding `CC(C)=CC(=O)Nc1ccc(Br)cc1`, the concentration at half-maximal activity (AC50) under setting [2] was 4.61 µM [rising, partial curve, poor fit].

Regarding `Cc1ccc(C(=O)NCC(=O)OCC(=O)c2ccc3c(c2)NC(=O)CO3)cc1`, the cell number change was 23.2%.

Consider `CCC(C)NC(=O)c1c(F)c(F)c(F)c(F)c1F` (configuration not stated), for which the cell number change was -37.7%. Besides, the AC50 under setting [2] was 25.9 µM [falling, single point]. Also, the concentration at half-maximal activity (AC50) under setting [1] is 25.9 µM [falling, partial curve].

`Fc1ccc(-c2cc3nc4c(c(N5CCOCC5)n3n2)CCCC4)cc1`: the cell number change is -14.7%.

Regarding `CC1(C)CC(=O)C(CCC(=O)c2ccccc2)C(C)(C)N1` (configuration not stated), the cell number change was -25%. Moreover, under setting [1], the half-maximal activity concentration (AC50) was 29.1 µM [falling, single point].

Take `Cc1ncsc1CCOC(=O)c1ccc(Cl)cc1`: the concentration at half-maximal activity (AC50) under setting [1] is 7.31 µM [falling, partial curve].

Take `O=C(CNS(=O)(=O)c1ccccc1)OCC(=O)c1cccc([N+](=O)[O-])c1`: the cell number change is -44.5%. Further, the AC50 under setting [2] is 29.1 µM [falling, single point]. In addition, under setting [1], the AC50 is 23.1 µM [falling, single point].

Regarding `S=c1cnc2ccccc2[nH]1`, the cell number change came out at 4.04%. In addition, the AC50 under setting [2] is 0.0651 µM [falling, full curve, poor fit].

In the case of `Cc1oc(-c2ccccc2)nc1CS(=O)CC(=O)N1CCc2ccccc2C1` (configuration not stated), the cell number change was -6.46%. Further, under setting [1], the AC50 was 4.61 µM [rising, partial curve].

Take `CSc1nc(NCCCO)c2c3c(sc2n1)CN(C)CC3`: the cell number change was determined as 19.2%. The half-maximal activity concentration (AC50) under setting [1] was 5.8 µM [rising, partial curve, poor fit].

For the compound `CCn1c(SCC(=O)N/N=C/C=C\c2ccccc2[N+](=O)[O-])nnc1-c1ccccc1`, the cell number change was -14.6%. Further, under setting [1], the AC50 is 0.326 µM [falling, partial curve].

On to `CN(/N=C/c1ccncc1)c1cnc2ccccc2n1`, for which the cell number change was 18.5%. For the same compound, the AC50 under setting [2] is 0.146 µM [rising, full curve, poor fit].

As to `C=CCSc1nc2sc3c(c2c(=O)n1CC)CCC3`, the cell number change was -14%. Moreover, under setting [1], the AC50 is 29.1 µM [falling, single point].

With `N/C(=N\NC(=O)c1ccc(F)cc1)c1cc2ccccc2oc1=O`, the cell number change was 36.4%. Under setting [1], the AC50 is 1.46 µM [rising, partial curve].

Turning to `CC1=CC(C)(C)N(C(=O)CSc2nnc(-c3ccccc3)o2)c2ccc(C)cc21`, the AC50 is 0.411 µM [rising, full curve, poor fit] under setting [2] and 0.366 µM [rising, partial curve, poor fit] under setting [1].

As for `Cc1ccc(S(=O)(=O)N2CCCOC2CNC(=O)C(=O)NCc2ccc3c(c2)OCO3)cc1` (configuration not stated), the cell number change came out at 32.4%. Further, under setting [2], the half-maximal activity concentration (AC50) is 20.6 µM [rising, single point]. Moreover, the AC50 under setting [1] was 14.6 µM [rising, partial curve].

Take `CCOc1ccc(C2CC(=O)n3nc(C45CC6CC(CC(C6)C4)C5)nc3S2)cc1OC` (configuration not stated): the cell number change came out at 8.8%.

For `Cn1nc(-c2ccccc2)cc1NC(=O)c1ccccc1`, the cell number change was -20.6%. Moreover, the AC50 under setting [1] was 4.61 µM [falling, partial curve].

On to `COc1ccc(CC(=O)OCC(=O)NCc2ccc(Cl)cc2)cc1`, for which the cell number change was determined as 17.3%. Further, the AC50 under setting [1] was 0.651 µM [falling, full curve, poor fit].

With `O=C(OCCN(C1=NS(=O)(=O)c2ccccc21)c1ccc(Cl)cc1)c1ccco1`, the cell number change was -1.75%.

For the compound `O=C(CNC(=O)c1cn2ccccc2n1)Nc1ccc(F)c(F)c1`, the cell number change turned out to be 44.5%. Under setting [2], the AC50 was 8.2 µM [rising, partial curve]. For the same compound, under setting [1], the AC50 was 9.2 µM [rising, partial curve].

The values are drawn from PubChem BioAssay AID2685 (National Center for Advancing Translational Sciences (NCATS), 2010).
